# Paper PMC10163288
# Some of the results follow.
# B1: il10ra_site1_normal_mot_HHH_b1_02397_af2_000000085_0001_39_57_H_._HHH_b2_06307_af2_0001_0000600004_0000001_1 (protein)
# chain: SSSSDKEERIEELLEEAKELYENGNPEEAARVAAEALRLIFELGNEELMRELWEIVKRLGSSSSS
# B2: il10ra_site1_sap_18_mot_HHH_b2_00943_af2_000000149_0001_1_17_H_._HHH_b2_08055_0001_0000100005_0000001_0_0001_af2pred_0001 (protein)
# chain: SSSSSSDVEELIEEAKELLEKGDPEAKEVLMEALLLAARLGDDEAAHEILKLLAESTTSSSSSSS
# B3: il10ra_site1_normal_mot_HHH_b2_00345_af2_000000013_0001_42_56_H_._HHH_b2_01857_0001_0000200015_0000002_0 (protein)
# chain: SSSSSDEEEEEVEELLEEAKHIEDEEKRLEILLEATRLALEAQDPELLQLVWEVFHRLIRSSSSS
# B4: il10ra_site1_normal_mot_HHH_b2_01705_af2_000000069_0001_44_57_H_._1120a227123fe120892103896c8fe6e4_0001_1_0001_0000600024_0000001_0_af2pred_0001 (protein)
# chain: DEKEVLEEAAELVKEGNPREAARLLIELLLKSGDPRLVELLRRVAELLSRGNLEEVHELLRELAR
# B5: il10ra_site1_normal_mot_HHH_b1_00999_000000080_0001_41_55_H_._HHH_b2_04871_af2_0001_0000500014_0000002_0 (protein)
# chain: SSSSDEEVEEEVKRLLEEAEKTPDPEERLELLLEALRIAYENQDAELLQEIWEVIRKLGGSSSSS
# B6: il10ra_site1_sap_20_mot_HHH_b1_07097_af2_000000269_0001_1_16_H_._HHH_b1_06196_0001_0000100004_0000001_0_0001 (protein)
# chain: SSTEELLRQLIETVERLIREGTITESAKFHVRQAIKAAKLLGDEEVEKRLRELEERIEEVESSSS
# B7: il10ra_site1_normal_mot_HHH_b1_02809_af2_000000277_0001_40_57_H_._HHH_b2_07759_af2_0001_0000100002_0000001_0 (protein)
# chain: SSSSSSREEKLIELALKFARALEDEEAARALARAALEIARKLGDEELFEKVQEFLEELNSSSSSS
# B8: il10ra_site1_normal_mot_HHH_b2_08144_af2_000000046_0001_38_52_H_._HHH_b1_01389_af2_0001_0000500024_0000001_0_af2pred_0001 (protein)
# chain: SSSSDEVEEAVRLLREALKLYAEGNPEEAKKVVEEAKEVAEEGNNPLLKFLIESLERRINRSSSS
# B9: il10ra_site1_sap_21_mot_a4073ed34bad1529e7d46a7d39fa26d0_0001_af2_000000058_0001_1_11_H_._HHH_b2_03967_0001_0000100005_0000001_0_0001_af2pred_0001 (protein)
# chain: SSSSTHEVSQLIARALRLIQNGNPEEAEEVIQEAERLAEEIGDPKLKIAVRFVKFILEQAESSSS
# B10: il10ra_site1_normal_mot_HHH_b1_01821_000000158_0001_23_39_H_._HHH_b1_01089_0001_0000500027_0000001_0 (protein)
# chain: SSSSSSDLEEEIEELLEELKQITDPREFSRVAQEAIRLIFELGDEELLQELWEIFKKFSSSSSSS
# B11: il10ra_site1_normal_mot_HHH_b1_01879_000000050_0001_1_18_H_._HHH_b1_03974_0002_0000600017_0000001_0 (protein)
# chain: SSSSSEEVEELLIILAELSARDPEYQELLFQAMIEAWILLERGNPEEAERIAEEAIEEVRESSSS
# B12: il10ra_site1_normal_mot_HHH_b2_07569_000000265_0001_38_56_H_._HHH_b1_04343_af2_0001_0000300017_0000001_0 (protein)
# chain: SSSDDEVARRAARVAAEAIRFAFRNNDKETVQELWELAYRIFREGDPELLEELERLLEELRSSSS
# B13: il10ra_site1_sap_24_mot_HHH_b1_02809_af2_000000277_0001_40_57_H_._HHH_b1_04113_af2_0001_0000200009_0000001_0_0001 (protein)
# chain: SSSSDAEEEVRRLLEEVRELLEEGDAEKAFRALKRAVEIAAKARDPEAEKLVHELLHEFFQSSSS
# B14: il10ra_site1_normal_mot_HHH_b1_07968_af2_000000259_0001_43_56_H_._16d56542c9725820401ab7c11c235cbe_0001_af2_0001_0000500017_0000001_0_af2pred_0001 (protein)
# chain: NEIIERSLRYVLKLGDEEAAKAAVKRLLELRGVPPEEIEEILKEFEELLKKDPEEAVEFVVRLLE
# B15: il10ra_site1_normal_mot_8756ee2cf497b5429c717dfc0c0bcfd6_0001_000000186_0001_1_13_H_._HHH_b1_06492_0001_0000400026_0000001_0 (protein)
# chain: SSSSTSQEIQELLRRASELELEGDDEEAEKLLREAEELAKEANNDVLLFQVEYLLELVEESSSSS
# B16: il10ra_site1_normal_mot_HHH_b2_06979_000000158_0001_42_57_H_._HHH_b2_04598_0001_0000200021_0000001_0 (protein)
# chain: SSSSDQAEIIYRLARELAELLANGNEEEARELAEEAREILEELGDRLALHNVEFLLRDINSSSSS
# B17: il10ra_site1_sap_23_mot_HHH_b1_05357_000000034_0001_23_39_H_._HHH_b2_08077_0001_0000100003_0000001_0_0001 (protein)
# chain: SSSSSEELERYVKLSLRFARWLYEAGDPEAARFIVKAALDTARRENNEELVEELEELLRQLSSSS
# B18: il10ra_site1_sap_15_mot_HHH_b1_05757_000000171_0001_42_57_H_._HHH_b2_01629_0001_0000100011_0000001_0_0001_af2pred_0001 (protein)
# chain: SSSSSDEELREEVEELLEEAKKIDDPKEAAEVIFRALRLAWELGDPELVRLVAEVAKKLKSSSSS
# B19: il10ra_site1_sap_23_mot_HHH_b1_06789_af2_000000041_0001_1_20_H_._HHH_b1_05884_0001_0000100017_0000002_0_0001 (protein)
# chain: SSSSDEEHQEVYRLLKELIEAMAHGDEELVRELYEEVHELAERLGSRVLLHNIEFAFKRFGSSSS
# B20: il10ra_site1_sap_14_mot_HHH_b1_06786_000000000_0001_1_20_H_._HHH_b2_03801_af2_0001_0000100003_0000001_0_0001 (protein)
# chain: SSSSDEEVEEEVRELLEEAQRLAEEGNPEEAMKLLAEAVRVAFQGQDPEALRLVWRVVHELSSSS
# B21: il10ra_site1_normal_mot_HHH_b2_00984_000000042_0001_1_20_H_._HHH_b2_07534_0001_0000600066_0000001_1 (protein)
# chain: SSSSDEEEKRLEELLEEVRELLERGDPERAARLAQELLRHIFRASDEEALQELWELIKREASSSS
# B22: il10ra_site1_normal_mot_HHH_b2_03568_000000058_0001_1_19_H_._HHH_b2_02970_0001_0000300026_0000001_0 (protein)
# chain: SSSSDESYELARRVIEETIELLRQGDEEEAEKLLREAERLLEELGDFSALFAIKRLLRLVTSSSS
# B23: il10ra_site1_normal_mot_HHH_b1_06912_af2_000000235_0001_1_15_H_._HHH_b2_01017_af2_0001_0000100001_0000002_0_af2pred_dldesign_0_af2pred (protein)
# chain: SSSSSSSPESEEIYALIREALALEDKEEAKAKLEEALELAKKNNDEIAIETINYALSQLSSSSSS
# B24: il10ra_site1_sap_13_mot_HHH_b1_01827_000000263_0001_1_19_H_._HHH_b2_02299_0001_0000200019_0000001_0_0001 (protein)
# chain: SSSSDEELQEALRLVLEAFRALLRGDEEKARELLQRALELAEEANDPRAALAIRALLEALNSSSS
# Target: il10ra, Q13651
# Experiment: yeast display titration
row,Binder,apparent Kd
1,B1,inactive: no binding seen
2,B2,inactive: no binding seen
3,B3,inactive: no binding seen
4,B4,inactive: no binding seen
5,B5,inactive: no binding seen
6,B6,inactive: no binding seen
7,B7,inactive: no binding seen
8,B8,inactive: no binding seen
9,B9,inactive: no binding seen
10,B10,inactive: no binding seen
11,B11,inactive: no binding seen
12,B12,inactive: no binding seen
13,B13,inactive: no binding seen
14,B14,inactive: no binding seen
15,B15,inactive: no binding seen
16,B16,inactive: no binding seen
17,B17,inactive: no binding seen
18,B18,inactive: no binding seen
19,B19,inactive: no binding seen
20,B20,inactive: no binding seen
21,B21,inactive: no binding seen
22,B22,inactive: no binding seen
23,B23,inactive: no binding seen
24,B24,inactive: no binding seen

# Looked up above:
# Value of B19 under apparent Kd: inactive: no binding seen
# Value of B18 under apparent Kd: inactive: no binding seen
